Laboratory results as given in patent publication US5998366A, “Method for ameliorating glutamic acid decarboxylase associated autoimmune disorders” (The Regents of the University of California, priority 1997, dated 1999).
Part of at least one peptide drawing is inferred or uncertain, most often the ends. Some entries repeat one wording, which the source may state once for all of them. Some ranges recur; such a range may be that of the whole group of compounds. Peptide text beside a SMILES is read from it.

What was measured:
[1] = tested on: IDDM associated autoantibodies; experiment: ELISA of patient and control sera on plate-bound human GAD65 peptides; format: binding; details: for immunoreactivity with control and patient sera / controls whose sera recognized the peptide / patients whose sera recognized the peptide: serum 1/300; for share of patients recognizing the peptide: none of the control sera; for controls whose sera recognized the peptide: 13 control sera; for patients whose sera recognized the peptide: positive = OD410 sample/negative control ≥3.0
Excerpt: A set of peptides (20-23 amino acids in length, with 5 aa overlaps) that span the human GAD65 molecule were synthesized to determine whether sera from most individuals at risk, pre-IDDM and with IDDM (in contrast to healthy controls) do in fact produce antibodies that differentially recognize GAD65 linear epitopes distributed throughout the molecule.
Patient sera and most control sera were those used in a previous study (Kaufman, et al., J. Clin. Investigation, supra) All samples were coded and tested in a blind manner. Peptides were synthesized using an automatic instrument (Applied Biosystems, Foster City, Calif.) and standard conditions. Peptides were dissolved in 60 mM sodium bicarbonate buffer (pH 9.6) at 20 ug/ml and 100 ul of each was added to duplicated wells of a 96 well Nunc-Immuno Plate. Peptides were allowed to bind at 4° C. overnight. The plates were then washed three times with PBS+0.1% Tween 20 (wash buffer), after which the plates were pre-absorbed with 3% BSA in sodium bicarbonate buffer for 0.5 hours at 37° C., or at room temperature overnight. The plates were then washed 5 times with the above wash buffer. 100 ul of serum at a 1/300 dilution in PBS+0.1% Tween 20 and 1% BSA was added to each well and antibodies were allowed to bind for 1 hour at 37° C. The plates were washed 5 times with wash buffer. 100 ul of a 1/600 dilution of HRP-goat anti-human IgG (BRL, Gaithersberg, Md.) was added to each well and allowed to bind for 1 hour at 37° C. The plates were then washed 7 times and 100 ul of substrate buffer was added to each well for 30 minutes at room temperature. The color development was measured at 410 nm using an ELISA plate reader (ICN, Biomedicals, Costa Mesa, Calif.). Positive sera were defined as: OD410 of the sample/negative control ≥3.0.

spleen cells of NOD mice = experiment: Mapping of the anti-GAD T-cell response with GAD65 peptides (spleen cell proliferation); format: cell-based; details: peptides at 7 μM, 5-day culture (FIG. 10)

CC[C@H](C)[C@H](NC(=O)CNC(=O)CNC(=O)[C@@H](NC(=O)[C@H](Cc1ccccc1)NC(=O)[C@H](CCCCN)NC(=O)[C@@H](N)CCC(N)=O)[C@@H](C)O)C(=O)NCC(=O)N[C@H](C(=O)NCC(=O)N[C@@H](CC(N)=O)C(=O)N[C@@H](CCCCN)C(=O)N[C@@H](CC(C)C)C(=O)N[C@@H](CS)C(=O)N[C@@H](C)C(=O)N[C@@H](CC(C)C)C(=O)N[C@@H](CC(C)C)C(=O)N[C@@H](Cc1ccc(O)cc1)C(=O)NCC(=O)N[C@@H](CC(=O)O)C(=O)O)[C@@H](C)CC [Peptide 5] (H-QKFTGGIGIGNKLCALLYGD-OH)
immunoreactivity with control and patient sera [1]: often positive for immunoreactivity by both control and patient sera

CC[C@H](C)[C@H](NC(=O)[C@H](CC(N)=O)NC(=O)[C@H](Cc1ccc(O)cc1)NC(=O)[C@H](CC(C)C)NC(=O)[C@H](Cc1ccc(O)cc1)NC(=O)[C@@H](N)CCC(=O)O)C(=O)N[C@H](C(=O)N[C@@H](CCCCN)C(=O)N[C@@H](CC(N)=O)C(=O)N[C@@H](CCCNC(=N)N)C(=O)N[C@@H](CCC(=O)O)C(=O)NCC(=O)N[C@@H](Cc1ccc(O)cc1)C(=O)N[C@@H](CCC(=O)O)C(=O)N[C@@H](CCSC)C(=O)N[C@H](C(=O)N[C@@H](Cc1ccccc1)C(=O)N[C@@H](CC(=O)O)C(=O)NCC(=O)N[C@@H](CCCCN)C(=O)O)C(C)C)[C@@H](C)CC [Peptide 32]
age at which a proliferative response to the peptide was first recorded (spleen cells of NOD mice): During the next two weeks

CC(C)C[C@H](NC(=O)[C@H](Cc1ccccc1)NC(=O)[C@@H]1CCCN1C(=O)[C@@H](NC(=O)[C@H](Cc1ccccc1)NC(=O)CNC(=O)[C@H](CCCCN)NC(=O)[C@H](CCC(N)=O)NC(=O)[C@H](CCCCN)NC(=O)[C@H](C)NC(=O)[C@H](CCC(=O)O)NC(=O)[C@@H](N)CC(C)C)C(C)C)C(=O)N[C@H](C(=O)N[C@@H](CO)C(=O)N[C@@H](C)C(=O)N[C@H](C(=O)N[C@@H](C)C(=O)NCC(=O)N[C@H](C(=O)N[C@H](C(=O)O)[C@@H](C)O)[C@@H](C)O)[C@@H](C)O)C(C)C [Peptide 22] (H-LEAKQKGFVPFLVSATAGTT-OH)
share of patients recognizing the peptide [1]: 25-37%

CC[C@H](C)[C@H](NC(=O)[C@@H](NC(=O)[C@H](CCCCN)NC(=O)[C@@H](NC(=O)[C@H](CO)NC(=O)[C@H](CCCNC(=N)N)NC(=O)[C@H](CC(=O)O)NC(=O)[C@H](Cc1ccccc1)NC(=O)[C@@H](N)CO)[C@@H](C)O)C(C)C)C(=O)N[C@@H](CC(=O)O)C(=O)N[C@@H](Cc1ccccc1)C(=O)N[C@@H](Cc1c[nH]cn1)C(=O)N[C@@H](Cc1ccc(O)cc1)C(=O)N1CCC[C@H]1C(=O)N[C@@H](CC(N)=O)C(=O)N[C@@H](CCC(=O)O)C(=O)N[C@@H](CC(C)C)C(=O)N[C@@H](CC(C)C)C(=O)N[C@@H](CCC(N)=O)C(=O)N[C@@H](CCC(=O)O)C(=O)O [Peptide 9] (H-SFDRSTKVIDFHYPNELLQE-OH)
immunoreactivity with control and patient sera [1]: often positive for immunoreactivity by both control and patient sera

CSCC[C@H](NC(=O)[C@H](CC(C)C)NC(=O)[C@H](CC(C)C)NC(=O)CN)C(=O)N[C@@H](CO)C(=O)N[C@@H](CCCNC(=N)N)C(=O)N[C@@H](CCCCN)C(=O)N[C@@H](Cc1c[nH]cn1)C(=O)N[C@@H](CCCCN)C(=O)N[C@@H](Cc1c[nH]c2ccccc12)C(=O)N[C@@H](CCCCN)C(=O)N[C@@H](CC(C)C)C(=O)N[C@@H](CO)C(=O)NCC(=O)N[C@H](C(=O)N[C@@H](CCC(=O)O)C(=O)N[C@@H](CCCNC(=N)N)C(=O)N[C@@H](C)C(=O)N[C@@H](CC(N)=O)C(=O)N[C@@H](CO)C(=O)O)C(C)C [Peptide 25]
controls whose sera recognized the peptide [1]: 1 out of 13 | share of patients recognizing the peptide [1]: 25-37% | patients whose sera recognized the peptide [1]: 6/8

CC[C@H](C)[C@H](NC(=O)CNC(=O)CNC(=O)[C@@H](NC(=O)[C@H](Cc1ccccc1)NC(=O)[C@H](CCCCN)NC(=O)[C@@H](N)CCC(N)=O)[C@@H](C)O)C(=O)NCC(=O)N[C@@H](CC(N)=O)C(=O)N[C@@H](CCCCN)C(=O)N[C@@H](CC(C)C)C(=O)N[C@@H](CS)C(=O)N[C@@H](C)C(=O)N[C@@H](CC(C)C)C(=O)N[C@@H](CC(C)C)C(=O)N[C@@H](Cc1ccc(O)cc1)C(=O)NCC(=O)N[C@@H](CC(=O)O)C(=O)O [Peptide 3, QKFTGGIGNKLCALLYGD] (H-QKFTGGIGNKLCALLYGD-OH)
share of patients recognizing the peptide [1]: 25-37%

CC[C@H](C)[C@H](NC(=O)[C@@H](NC(=O)[C@@H]1CCCN1C(=O)[C@H](C)NC(=O)[C@@H](NC(=O)[C@H](CCCCN)NC(=O)[C@H](CO)NC(=O)[C@H](CC(C)C)NC(=O)[C@H](CCCNC(=N)N)NC(=O)[C@@H](N)CO)C(C)C)C(C)C)C(=O)N[C@@H](CCCCN)C(=O)N[C@@H](C)C(=O)N[C@@H](CCCNC(=N)N)C(=O)N[C@@H](CCSC)C(=O)N[C@@H](CCSC)C(=O)N[C@@H](CCC(=O)O)C(=O)N[C@@H](Cc1ccc(O)cc1)C(=O)NCC(=O)N[C@H](C(=O)N[C@H](C(=O)O)[C@@H](C)O)[C@@H](C)O [Peptide 35] (H-SRLSKVAPVIKARMMEYGTT-OH)
age at which a proliferative response to the peptide was first recorded (spleen cells of NOD mice): 4 weeks

CC[C@H](C)[C@H](NC(=O)[C@H](CCCCN)NC(=O)[C@H](Cc1ccc(O)cc1)NC(=O)[C@H](CCCCN)NC(=O)[C@H](CCCCN)NC(=O)[C@H](CS)NC(=O)[C@@H](NC(=O)[C@@H](N)CC(=O)O)[C@@H](C)CC)C(=O)N[C@@H](Cc1c[nH]c2ccccc12)C(=O)N[C@@H](CCSC)C(=O)N[C@@H](Cc1c[nH]cn1)C(=O)N[C@H](C(=O)N[C@@H](CC(=O)O)C(=O)N[C@@H](C)C(=O)N[C@@H](C)C(=O)N[C@@H](CCC(N)=O)C(=O)NCC(=O)NCC(=O)NCC(=O)N[C@@H](CC(C)C)C(=O)N[C@@H](CC(C)C)C(=O)N[C@@H](CCSC)C(=O)N[C@@H](CO)C(=O)O)C(C)C [Peptide 24]
immunoreactivity with control and patient sera [1]: often positive for immunoreactivity by both control and patient sera

CC[C@H](C)[C@H](NC(=O)CNC(=O)[C@H](CC(C)C)NC(=O)[C@H](C)NC(=O)[C@H](C)N)C(=O)NCC(=O)N[C@H](C(=O)N[C@@H](CC(=O)O)C(=O)N[C@@H](CO)C(=O)N[C@H](C(=O)N[C@H](C(=O)N[C@@H](CC(C)C)C(=O)N[C@H](C(=O)N[C@@H](CCCCN)C(=O)N[C@@H](CS)C(=O)N[C@@H](CC(=O)O)C(=O)N[C@@H](CCC(=O)O)C(=O)N[C@@H](CCCNC(=N)N)C(=O)NCC(=O)N[C@@H](CCCCN)C(=O)O)[C@@H](C)CC)[C@@H](C)CC)C(C)C)[C@@H](C)O [Peptide 20] (H-AALGIGTDSVILIKCDERGK-OH)
controls whose sera recognized the peptide [1]: none of the controls | patients whose sera recognized the peptide [1]: 6/8

CC[C@H](C)[C@H](NC(=O)[C@H](CCCNC(=N)N)NC(=O)[C@H](CCCNC(=N)N)NC(=O)[C@H](CCC(=O)O)NC(=O)[C@H](CC(C)C)NC(=O)[C@H](CC(=O)O)NC(=O)[C@H](CO)NC(=O)[C@@H]1CCCN1C(=O)[C@@H](NC(=O)[C@H](CCSC)NC(=O)[C@H](CCCCN)NC(=O)CNC(=O)[C@H](CCCNC(=N)N)NC(=O)[C@H](CCC(=O)O)NC(=O)[C@@H](N)CC(=O)O)[C@@H](C)CC)C(=O)N[C@@H](CC(C)C)C(=O)N[C@@H](CCC(=O)O)C(=O)N[C@@H](C)C(=O)N[C@@H](CCCCN)C(=O)N[C@@H](CCC(N)=O)C(=O)O [Peptide 21] (H-DERGKMIPSDLERRILEAKQ-OH)
controls whose sera recognized the peptide [1]: none of the controls | patients whose sera recognized the peptide [1]: 6/8
